This is an account of results in patent US20220275038A1 (TOKYO MEDICAL UNIVERSITY, published 2022).

Chains of the proteins cited; added tags and fusions are not shown. Lines headed by an entry give the natural chain unless they say otherwise; changes in a name come on top. A line that says so, or that is headed by a name, gives the form on record, which may keep a tag or linker. Residues count along the entry.
human apolipoprotein E3, C-terminally tagged with HA (overexpressed in F11 cells, cell lysate) (P02649, residues 19-317): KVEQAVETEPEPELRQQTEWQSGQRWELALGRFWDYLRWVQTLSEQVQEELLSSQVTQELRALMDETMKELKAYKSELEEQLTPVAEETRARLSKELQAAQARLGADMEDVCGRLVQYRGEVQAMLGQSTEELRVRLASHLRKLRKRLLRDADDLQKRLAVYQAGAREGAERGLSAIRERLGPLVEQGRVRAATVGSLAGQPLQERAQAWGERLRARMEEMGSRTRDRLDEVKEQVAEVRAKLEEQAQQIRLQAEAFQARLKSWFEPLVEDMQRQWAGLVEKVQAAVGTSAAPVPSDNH
recombinant human ApoE4 (PeproTech, cat. no. 350-04) (P02649, form named): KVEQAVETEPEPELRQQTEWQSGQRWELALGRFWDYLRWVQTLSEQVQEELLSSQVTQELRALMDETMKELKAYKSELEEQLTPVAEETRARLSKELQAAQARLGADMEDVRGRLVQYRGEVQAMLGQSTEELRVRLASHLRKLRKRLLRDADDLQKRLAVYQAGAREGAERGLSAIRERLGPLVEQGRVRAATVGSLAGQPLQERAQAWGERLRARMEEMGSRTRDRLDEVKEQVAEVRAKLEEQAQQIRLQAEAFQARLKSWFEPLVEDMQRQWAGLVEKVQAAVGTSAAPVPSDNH
UniProt Q15848: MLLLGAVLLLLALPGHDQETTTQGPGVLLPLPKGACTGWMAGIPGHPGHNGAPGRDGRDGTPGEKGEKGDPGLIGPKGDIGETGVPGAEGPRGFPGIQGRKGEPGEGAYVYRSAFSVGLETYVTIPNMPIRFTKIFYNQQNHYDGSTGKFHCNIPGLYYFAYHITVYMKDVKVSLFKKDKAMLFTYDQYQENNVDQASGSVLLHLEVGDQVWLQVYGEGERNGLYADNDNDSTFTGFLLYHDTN
UniProt P07355: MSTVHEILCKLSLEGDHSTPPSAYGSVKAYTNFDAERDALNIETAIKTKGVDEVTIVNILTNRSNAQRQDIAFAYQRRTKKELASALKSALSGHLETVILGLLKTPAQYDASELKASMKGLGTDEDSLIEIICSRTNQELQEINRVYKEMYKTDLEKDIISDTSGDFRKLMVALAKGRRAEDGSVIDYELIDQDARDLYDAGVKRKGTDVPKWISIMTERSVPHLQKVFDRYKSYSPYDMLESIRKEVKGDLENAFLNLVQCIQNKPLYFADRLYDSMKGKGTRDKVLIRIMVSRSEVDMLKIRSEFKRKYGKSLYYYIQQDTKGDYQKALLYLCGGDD

In test [1] the target is human CLSP-MycHis (calmodulin-like skin protein, C-terminally tagged with MycHis) (human) (UniProt Q9NZT1). Kind of test: pull-down of recombinant protein (1 nM) with CLSP-MycHis sepharose 4B, silver stain.
Test [2] concerns the target apolipoprotein E4 C-terminally tagged with FLAG (overexpressed in F11 cells, immunoprecipitated with FLAG antibody) (human) (UniProt P02649). Put plainly: pull-down of purified MycHis-tagged CLSP proteins with ApoE4-FLAG immunoprecipitated on M2 agarose beads, WB anti-myc [ApoE4 beads].
In test [3] the target is adiponectin C-terminally tagged with FLAG (overexpressed in F11 cells, immunoprecipitated with FLAG antibody) (human) (UniProt Q15848). Kind of test: pull-down of purified MycHis-tagged CLSP proteins with ADN-FLAG immunoprecipitated on M2 agarose beads, WB anti-myc [ADN beads].
Test [4] has as its target apolipoprotein E4 C-terminally tagged with FLAG (overexpressed in F11 cells, immunoprecipitated with FLAG antibody) (human) (UniProt P02649). Kind of test: pull-down with immunoprecipitated ApoE4, myc immunoblot (FIG. 9). In general terms: In western blotting, separated proteins are transferred to a membrane and probed.
Test [5] concerns the target human CLSP-MycHis (calmodulin-like skin protein, C-terminally tagged with MycHis) (human) (UniProt Q9NZT1). Put plainly: pull-down of F11 cell lysate with CLSP-MycHis sepharose 4B, HA immunoblot.
Test [6] shares this target. Put plainly: pull-down of F11 cell lysate with CLSP-MycHis sepharose 4B, HA immunoblot (FIG. 1).
Test [7] concerns the target adiponectin C-terminally tagged with FLAG (overexpressed in F11 cells, immunoprecipitated with FLAG antibody) (human) (UniProt Q15848). Put plainly: pull-down with immunoprecipitated ADN-FLAG, myc immunoblot (FIG. 15 a, b).

Results are given in words; binding and its absence hold for the method and conditions named. In cells and extracts the contact can be indirect. Some entries that bind do so weakly or less than the wild type.

With “recombinant annexin II (made from GST-annexin II produced in bacteria) (from UniProt P07355 1-339)”, the binding result in test [1] was “binds”.

In the case of “recombinant human ApoE3 (PeproTech, cat. no. 350-02) (from UniProt P02649 19-317)”, in test [1], the binding result was “binds”.

As for “human CLSP-MycHis (calmodulin-like skin protein, C-terminally tagged with MycHis) (from UniProt Q9NZT1 1-146) (ligand)”, the binding result in test [2], in test [3] and in test [4] was “binds” throughout.

For the molecule “human apolipoprotein E3, C-terminally tagged with HA (overexpressed in F11 cells, cell lysate) (from UniProt P02649 19-317)”, the binding entry in test [5] and in test [6] was “binds” throughout.

For “recombinant human ApoE4 (PeproTech, cat. no. 350-04) (from UniProt P02649 19-317)”, the binding result in test [1] is reported as “binds”.

Turning to “human adiponectin, C-terminally tagged with HA (overexpressed in F11 cells, cell lysate) (from UniProt Q15848 19-244) (ligand)”, the binding entry in test [5] and in test [6] was “binds” throughout.

On to “human adiponectin (BioVendor, cat. no. RD172029100) (from UniProt Q15848 19-244) (ligand)”, for which, in test [1], the binding entry is given as “binds”.

B1: CLSP(1-61)-MycHis (N-terminal region of CLSP, amino acid 1-61, C-terminally tagged with MycHis) (ligand)
chain: MAGELTPEEEAQYKKAFSAVDTDGNGTINAQELGAALKATGKNLSEAQLRKLISEVDSDGD
notes: Made in bacteria; not shown: C-terminal MycHis tag
On to B1, for which the binding result in test [7] is recorded as “binds”.
